Measurements as given in patent US20020102606A1.
These are yes or no findings as the source states them, for the method shown. Some entries that bind do so weakly or less than the wild type. Blank lines part the entries; values can stand above or below the binder they belong to.

By UniProt entry, the sequences of proteins in these tests, tags left out. Where a name states a change or a piece, a line headed by the entry shows the natural chain unless it says otherwise. Chains listed by the source or under a name are the forms on record and can include a tag or linker. Residues count along the entry.
UniProt Q16644, residues 114-304: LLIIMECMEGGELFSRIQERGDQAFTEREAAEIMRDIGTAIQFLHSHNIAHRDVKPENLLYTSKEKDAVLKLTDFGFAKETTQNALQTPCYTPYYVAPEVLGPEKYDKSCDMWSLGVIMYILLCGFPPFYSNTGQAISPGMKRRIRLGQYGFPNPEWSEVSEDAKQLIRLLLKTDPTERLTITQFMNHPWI
UniProt Q9BUB5: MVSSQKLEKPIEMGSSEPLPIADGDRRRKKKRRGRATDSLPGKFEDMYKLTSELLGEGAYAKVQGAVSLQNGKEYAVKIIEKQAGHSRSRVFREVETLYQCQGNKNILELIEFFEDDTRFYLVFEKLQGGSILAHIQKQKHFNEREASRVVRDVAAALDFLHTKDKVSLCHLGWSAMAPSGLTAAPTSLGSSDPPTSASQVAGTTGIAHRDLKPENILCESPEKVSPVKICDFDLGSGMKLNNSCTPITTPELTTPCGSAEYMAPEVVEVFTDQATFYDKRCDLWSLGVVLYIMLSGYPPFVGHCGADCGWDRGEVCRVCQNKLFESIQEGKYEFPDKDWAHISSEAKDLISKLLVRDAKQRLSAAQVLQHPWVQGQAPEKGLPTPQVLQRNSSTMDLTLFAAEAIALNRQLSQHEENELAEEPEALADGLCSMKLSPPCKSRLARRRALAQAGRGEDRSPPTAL
PRAK NUC 201-1104 K51M, T182D (bait) (Q8IW41, form named): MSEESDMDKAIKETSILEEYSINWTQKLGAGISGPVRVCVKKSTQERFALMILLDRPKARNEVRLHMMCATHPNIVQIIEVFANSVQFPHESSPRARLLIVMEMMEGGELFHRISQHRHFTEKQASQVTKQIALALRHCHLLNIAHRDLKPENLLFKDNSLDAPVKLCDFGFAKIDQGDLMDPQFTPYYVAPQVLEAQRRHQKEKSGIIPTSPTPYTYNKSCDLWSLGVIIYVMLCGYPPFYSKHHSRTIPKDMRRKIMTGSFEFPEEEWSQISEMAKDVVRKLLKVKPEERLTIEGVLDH
PRAK NUC 201-1609 K51M (bait) (Q8IW41, form named): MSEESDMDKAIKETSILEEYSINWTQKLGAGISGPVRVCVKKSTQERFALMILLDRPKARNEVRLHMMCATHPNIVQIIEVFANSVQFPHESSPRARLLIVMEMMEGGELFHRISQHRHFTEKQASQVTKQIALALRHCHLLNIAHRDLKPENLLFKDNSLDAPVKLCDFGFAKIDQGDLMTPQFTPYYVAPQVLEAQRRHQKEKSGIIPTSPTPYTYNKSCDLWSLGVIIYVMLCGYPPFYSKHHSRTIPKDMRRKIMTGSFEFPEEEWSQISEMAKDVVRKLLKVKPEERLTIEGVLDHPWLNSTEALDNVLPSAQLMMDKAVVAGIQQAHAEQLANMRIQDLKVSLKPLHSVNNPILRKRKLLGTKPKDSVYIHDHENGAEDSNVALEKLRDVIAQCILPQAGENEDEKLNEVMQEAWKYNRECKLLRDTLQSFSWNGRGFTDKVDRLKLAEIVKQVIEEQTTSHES
PRAK NUC 201-1104 T182D (bait) (Q8IW41, form named): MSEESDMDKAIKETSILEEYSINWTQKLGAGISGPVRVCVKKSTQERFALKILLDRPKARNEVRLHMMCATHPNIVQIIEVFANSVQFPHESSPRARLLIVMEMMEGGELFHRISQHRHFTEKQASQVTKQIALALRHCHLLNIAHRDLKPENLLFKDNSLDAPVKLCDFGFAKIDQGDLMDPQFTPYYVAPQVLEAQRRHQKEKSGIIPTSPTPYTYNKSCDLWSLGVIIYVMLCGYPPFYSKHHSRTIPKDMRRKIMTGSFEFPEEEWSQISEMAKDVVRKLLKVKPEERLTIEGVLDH

Columns and labels:
[1] = target: T1, LSF (UniProt Q12800); experiment: yeast two-hybrid
T1 sequence (looked up): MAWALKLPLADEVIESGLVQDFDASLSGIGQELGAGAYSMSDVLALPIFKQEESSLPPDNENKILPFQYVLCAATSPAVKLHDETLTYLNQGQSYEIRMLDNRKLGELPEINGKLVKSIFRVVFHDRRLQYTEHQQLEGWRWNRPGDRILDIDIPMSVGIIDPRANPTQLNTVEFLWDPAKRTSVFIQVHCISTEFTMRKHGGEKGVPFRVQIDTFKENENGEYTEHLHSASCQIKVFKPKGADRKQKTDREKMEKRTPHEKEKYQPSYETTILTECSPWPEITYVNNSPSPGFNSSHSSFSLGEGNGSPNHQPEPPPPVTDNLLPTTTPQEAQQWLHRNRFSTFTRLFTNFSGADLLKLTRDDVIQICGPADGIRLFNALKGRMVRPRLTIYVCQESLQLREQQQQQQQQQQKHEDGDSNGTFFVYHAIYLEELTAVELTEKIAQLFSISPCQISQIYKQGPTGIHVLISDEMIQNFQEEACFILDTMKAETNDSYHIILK

[2] = target: MAPKAP-K3 NUC 433-1003 (bait) (UniProt Q16644); experiment: yeast two-hybrid; prey clone found with the bait of the row
[3] = target: MAPKAP-K3 NUC 433-1003 (bait) (UniProt Q16644); experiment: yeast two-hybrid
[4] = target: MNK1 (UniProt Q9BUB5); experiment: yeast two-hybrid
[5] = target: PRAK NUC 201-1104 K51M, T182D (bait) (UniProt Q8IW41); experiment: yeast two-hybrid; prey clone found with the bait of the row
[6] = target: PRAK NUC 201-1104 K51M, T182D (bait) (UniProt Q8IW41); experiment: yeast two-hybrid
[7] = target: T2, TAB2, or TAK1 binding protein (UniProt Q9NYJ8); experiment: yeast two-hybrid
T2 sequence (looked up): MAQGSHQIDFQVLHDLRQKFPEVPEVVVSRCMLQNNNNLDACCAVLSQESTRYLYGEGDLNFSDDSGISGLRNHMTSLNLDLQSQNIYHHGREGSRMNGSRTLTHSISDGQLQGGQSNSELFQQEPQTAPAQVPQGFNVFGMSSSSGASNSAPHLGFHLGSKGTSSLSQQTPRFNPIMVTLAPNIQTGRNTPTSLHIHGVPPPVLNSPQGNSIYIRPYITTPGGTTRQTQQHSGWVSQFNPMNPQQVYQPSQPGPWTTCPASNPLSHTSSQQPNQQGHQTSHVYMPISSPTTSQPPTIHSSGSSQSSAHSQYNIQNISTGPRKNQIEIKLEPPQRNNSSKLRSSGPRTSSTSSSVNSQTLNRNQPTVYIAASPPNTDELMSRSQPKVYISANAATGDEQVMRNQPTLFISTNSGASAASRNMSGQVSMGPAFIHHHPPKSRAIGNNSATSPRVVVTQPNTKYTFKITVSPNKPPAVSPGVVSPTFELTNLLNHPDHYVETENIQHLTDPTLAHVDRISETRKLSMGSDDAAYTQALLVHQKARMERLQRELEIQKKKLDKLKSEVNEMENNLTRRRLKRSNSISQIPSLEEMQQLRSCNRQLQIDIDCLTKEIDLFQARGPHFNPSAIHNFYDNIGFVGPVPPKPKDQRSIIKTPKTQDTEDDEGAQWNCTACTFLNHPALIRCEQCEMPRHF

[8] = target: PRAK NUC 201-1609 K51M (bait) (UniProt Q8IW41); experiment: yeast two-hybrid; prey clone found with the bait of the row
[9] = target: PRAK NUC 201-1609 K51M (bait) (UniProt Q8IW41); experiment: yeast two-hybrid
[10] = target: T3, TIAR amino acids 1-48 (bait) (Mus musculus (Mouse)) (UniProt P70318); experiment: yeast two-hybrid; prey clone found with the bait of the row
T3 sequence: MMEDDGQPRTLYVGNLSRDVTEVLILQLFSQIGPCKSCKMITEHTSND

[11] = target: T3, TIAR amino acids 1-48 (bait) (Mus musculus (Mouse)); experiment: yeast two-hybrid
[12] = target: PRAK NUC 201-1104 T182D (bait) (UniProt Q8IW41); experiment: yeast two-hybrid; prey clone found with the bait of the row
[13] = target: PRAK NUC 201-1104 T182D (bait) (UniProt Q8IW41); experiment: yeast two-hybrid

- binding [2]: binds
- binding [3]: binds
B3: Highly Charged Amino Acid Sequence (X59131) NUC 2832-3411 (prey) (protein, human, UniProt Q5W0Q7 900-1092, looked up)
chain: KKKLAALMSSPQSRTVRSENLEQVPQDGSPNDCESIEDLLNELPYPIDIASESACTTVPGVSLYSSQTHEEILAELLSPTPVSTELSENGEGDFRYLGMGDSHIPPPVPSEFNDVSQNTHLRQDHNYCSPTKKNPCEVQPDSLTNNACVRTLNLESPMKTDIFDEFFSSSALNALANDTLDLPHFDEYLFENY

- binding [4]: binds
B4: Homer-3 (construct not stated) (protein, UniProt Q9NSC5 1-361, looked up)
chain: MSTAREQPIFSTRAHVFQIDPATKRNWIPAGKHALTVSYFYDATRNVYRIISIGGAKAIINSTVTPNMTFTKTSQKFGQWADSRANTVYGLGFASEQHLTQFAEKFQEVKEAARLAREKSQDGGELTSPALGLASHQVPPSPLVSANGPGEEKLFRSQSADAPGPTERERLKKMLSEGSVGEVQWEAEFFALQDSNNKLAGALREANAAAAQWRQQLEAQRAEAERLRQRVAELEAQAASEVTPTGEKEGLGQGQSLEQLEALVQTKDQEIQTLKSQTGGPREALEAAEREETQQKVQDLETRNAELEHQLRAMERSLEEARAERERARAEVGRAAQLLDVSLFELSELREGLARLAEAAP

- binding [5]: binds
- binding [6]: binds
B5: Kinectin NUC 3647-4140 (prey) (protein, human, UniProt Q86UP2 1194-1357, looked up)
chain: SENKDIENLRREREHLEMELEKAEMERSTYVTEVRELKDLLTELQKKLDDSYSEAVRQNEELNLLKAQLNETLTKLRTEQNERQKVAGDLHKAQQSLELIQSKIVKAAGDTTVIENSDVSPETESSEKETMSVSLNQTVTQLQQLLQAVNQQLTKEKEHYQVLE

- binding [7]: binds
B7: WBP-2 (construct not stated) (protein, UniProt Q969T9 1-261, looked up)
chain: MALNKNHSEGGGVIVNNTESILMSYDHVELTFNDMKNVPEAFKGTKKGTVYLTPYRVIFLSKGKDAMQSFMMPFYLMKDCEIKQPVFGANYIKGTVKAEAGGGWEGSASYKLTFTAGGAIEFGQRMLQVASQASRGEVPSGAYGYSYMPSGAYVYPPPVANGMYPCPPGYPYPPPPPEFYPGPPMMDGAMGYVQPPPPPYPGPMEPPVSGPDVPSTPAAEAKAAEAAASAYYNPGNPHNVYMPTSQPPPPPYYPPEDKKTQ

- binding [8]: binds
- binding [9]: binds
B10: Bicaudal-D NUC 210-1395 (prey) (protein, human, UniProt Q96G01 31-425, looked up)
chain: KIQAAEYGLVVLEEKLTLKQQYDELEAEYDSLKQELEQLKEAFGQSFSIHRKVAEDGETREETLLQESASKEAYYLGKILEMQNELKQSRAVVTNVQAENERLTAVVQDLKENNEMVELQRIRMKDEIREYKFREARLLQDYTELEEENITLQKLVSTLKQNQVEYEGLKHEIKRFEEETVLLNSQLEDAIRLKEIAEHQLEEALETLKNEREQKNNLRKELSQYISLNDNHISISVDGLKFAEDGSEPNNDDKMNGHIHGPLVKLNGDYRTPTLRKGESLNPVSDLFSELNISEIQKLKQQLMQVEREKAILLANLQESQTQLEHTKGALTEQHERVHRLTEHVNAMRGLQSSKELKAELDGEKGRDSGEEAHDYEVDINGLEILECKYRVAVT

- binding [5]: binds
- binding [12]: binds
- binding [6]: binds
- binding [13]: binds
B12: KIAA0555 NUC 1617-1983 (prey) (protein, human, UniProt Q96AA8 440-561, looked up)
chain: DSMDSETSSMASFRTDRTPATPDDDLDESLAAEESELRFRQLTKEYQALQRAYALLQEQTGGIIDAEREAKAQEQLQAEVLRYKAKIEDLEATLAQKGQDSHWVEDKQLFIKRNQELLEKIE

More lines, now with the values behind:

B1: ZFM1 (construct not stated) (protein, UniProt Q15637 1-639, looked up)
chain: MATGANATPLDFPSKKRKRSRWNQDTMEQKTVIPGMPTVIPPGLTREQERAYIVQLQIEDLTRKLRTGDLGIPPNPEDRSPSPEPIYNSEGKRLNTREFRTRKKLEEERHNLITEMVALNPDFKPPADYKPPATRVSDKVMIPQDEYPEINFVGLLIGPRGNTLKNIEKECNAKIMIRGKGSVKEGKVGRKDGQMLPGEDEPLHALVTANTMENVKKAVEQIRNILKQGIETPEDQNDLRKMQLRELARLNGTLREDDNRILRPWQSSETRSITNTTVCTKCGGAGHIASDCKFQRPGDPQSAQDKARMDKEYLSLMAELGEAPVPASVGSTSGPATTPLASAPRPAAPANNPPPPSLMSTTQSRPPWMNSGPSESRPYHGMHGGGPGGPGGGPHSFPHPLPSLTGGHGGHPMQHNPNGPPPPWMQPPPPPMNQGPHPPGHHGPPPMDQYLGSTPVGSGVYRLHQGKGMMPPPPMGMMPPPPPPPSGQPPPPPSGPLPPWQQQQQQPPPPPPPSSSMASSTPLPWQQNTTTTTTSAGTGSIPPWQQQQAAAAASPGAPQMQGNPTMVPLPPGVQPPLPPGAPPPPPPPPPGSAGMMYAPPPPPPPPMDPSNFVTMMGMGVAGMPPFGMPPAPPPPPPQN
- binding [1]: binds

B2: Golgi Apparatus Protein 88 (GM88) NUC 909-1257 (prey) (protein, human, UniProt A7E2F4 237-352, looked up)
chain: QILLKGHVTQLKESLKEVQLERDQYAEQIKGERAQWQQRMRKMSQEVCTLKEEKKHDTHRVEELERSLSRLKNQMAEPLPPDAPAVSSEVELQDLRKELERVAGELQAQVENNQCI
- binding [2]: binds
- binding [3]: binds

B6: ZFM1 NUC 910-1171 (prey) (protein, human, UniProt Q15637 177-263, looked up)
chain: IRGKGSVKEGKVGRKDGQMLPGEDEPLHALVTANTMENVKKAVEQIRNILKQGIETPEDQNDLRKMQLRELARLNGTLREDDNRILR
- binding [2]: binds
- binding [3]: binds

B8: KIAA0216 NUC 3913-4771 (prey) (protein, human, UniProt Q92614 1255-1540, looked up)
chain: QIRNKDEEIQQLRSKLEKAEKERNELRLNSDRLESRISELTSELTDERNTGESASQLLDAETAERLRAEKEMKELQTQYDALKKQMEVMEMEVMEARLIRAAEINGEVDDDDAGGEWRLKYERAVREVDFTKKRLQQEFEDKLEVEQQNKRQLERRLGDLQADSEESQRALQQLKKKCQRLTAELQDTKLHLEGQQVRNHELEKKQRRFDSELSQAHEEAQREKLQREKLQREKDMLLAEAFSLKQQLEEKDMDIAGFTQKVVSLEAELQDISSQESKDEASLAKV
- binding [2]: binds
- binding [3]: binds

B9: KIAA1026 NUC 765-1194 (prey) (protein, human, UniProt Q674X7 206-348, looked up)
chain: WELRRQAKEATDHATALRSQLDLKDNRMKELEAELAMAKQSLATLTKDVPKRHSLAMPGETVLNGNQEWVVQADLPLTAAIRQSQQTLYHSHPPHPADRQAVRVSPCHSRQPSVISDASAAEGDRSSTPSDINSPRHRTHSLC
- binding [2]: binds
- binding [3]: binds

B11: SEI1 NUC 131-549 (prey) (protein, human, UniProt Q9UHV2 18-157, looked up)
chain: PLAVDSWWLDPGHTAVAQAPPAVASSSLFDLSVLKLHHSLQQSEPDLRHLVLVVNTLRRIQASMAPAAALPPVPSPPAAPSVADNLLASSDAALSASMASLLEDLSHIEGLSQAPQPLADEGPPGRSIGGAAPSLGALDL
- binding [10]: binds
- binding [11]: binds
